Results from PMC5660093, “Structure of SgK223 pseudokinase reveals novel mechanisms of homotypic and heterotypic association” (Nature Communications, 2017).
Where a chain is given by its changes, count along the chain named. No constants are given. Whether binding was seen depends on the method and setting. In cells and extracts the contact can be indirect. Some binding calls cover weakened binding; strength is not graded here. Tags and fused reporters may be left off the sequences shown.

By UniProt entry, the sequences of proteins in these tests, tags left out.
UniProt Q9H792: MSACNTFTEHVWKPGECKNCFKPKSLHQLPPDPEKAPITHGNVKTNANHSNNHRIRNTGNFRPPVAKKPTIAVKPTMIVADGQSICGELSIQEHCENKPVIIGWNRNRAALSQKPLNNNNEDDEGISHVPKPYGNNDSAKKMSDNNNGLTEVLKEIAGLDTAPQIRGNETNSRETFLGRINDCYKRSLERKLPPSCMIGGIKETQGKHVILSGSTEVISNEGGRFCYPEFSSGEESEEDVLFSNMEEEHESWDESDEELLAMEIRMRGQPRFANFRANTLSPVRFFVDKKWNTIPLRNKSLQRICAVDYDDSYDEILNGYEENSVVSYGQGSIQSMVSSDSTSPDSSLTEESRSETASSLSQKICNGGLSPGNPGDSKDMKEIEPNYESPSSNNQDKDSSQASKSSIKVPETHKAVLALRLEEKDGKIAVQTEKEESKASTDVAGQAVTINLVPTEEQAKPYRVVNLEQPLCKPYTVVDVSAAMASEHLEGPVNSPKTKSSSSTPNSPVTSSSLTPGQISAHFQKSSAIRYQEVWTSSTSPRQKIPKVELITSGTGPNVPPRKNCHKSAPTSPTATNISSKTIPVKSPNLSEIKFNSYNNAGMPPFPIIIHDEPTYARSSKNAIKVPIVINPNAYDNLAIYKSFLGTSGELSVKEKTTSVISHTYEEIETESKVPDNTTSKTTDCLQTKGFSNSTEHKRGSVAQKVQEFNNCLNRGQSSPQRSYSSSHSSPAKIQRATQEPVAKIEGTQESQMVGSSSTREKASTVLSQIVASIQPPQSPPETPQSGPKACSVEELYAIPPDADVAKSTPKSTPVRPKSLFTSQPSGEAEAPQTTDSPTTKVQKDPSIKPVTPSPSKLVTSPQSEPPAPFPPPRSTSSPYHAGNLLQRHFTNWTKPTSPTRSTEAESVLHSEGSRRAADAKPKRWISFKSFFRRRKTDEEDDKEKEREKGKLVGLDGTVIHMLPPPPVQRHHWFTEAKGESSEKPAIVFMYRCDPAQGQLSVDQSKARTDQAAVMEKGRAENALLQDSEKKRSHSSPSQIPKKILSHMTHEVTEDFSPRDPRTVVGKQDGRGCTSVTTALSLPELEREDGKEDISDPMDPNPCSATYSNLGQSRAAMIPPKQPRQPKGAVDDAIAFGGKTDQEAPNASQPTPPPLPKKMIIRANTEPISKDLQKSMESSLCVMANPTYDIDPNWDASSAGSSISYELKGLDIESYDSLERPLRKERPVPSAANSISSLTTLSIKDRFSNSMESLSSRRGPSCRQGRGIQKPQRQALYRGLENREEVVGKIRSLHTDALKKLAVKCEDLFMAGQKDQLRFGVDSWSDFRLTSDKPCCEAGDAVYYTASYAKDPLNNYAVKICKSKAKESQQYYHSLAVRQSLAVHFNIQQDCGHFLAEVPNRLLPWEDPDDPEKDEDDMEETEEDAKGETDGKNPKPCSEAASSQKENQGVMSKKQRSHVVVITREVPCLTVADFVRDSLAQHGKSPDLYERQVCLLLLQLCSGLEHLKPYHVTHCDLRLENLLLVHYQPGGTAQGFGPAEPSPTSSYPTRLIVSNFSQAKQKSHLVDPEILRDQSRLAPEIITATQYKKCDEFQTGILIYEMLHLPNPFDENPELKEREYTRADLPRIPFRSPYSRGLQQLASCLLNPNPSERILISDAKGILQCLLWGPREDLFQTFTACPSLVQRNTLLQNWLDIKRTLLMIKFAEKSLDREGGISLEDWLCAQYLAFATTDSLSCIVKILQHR

Columns and labels:
[1] = target: T1, HA-tagged FL SgK223 I1243A (MCF-10A SgK223 KO) (UniProt Q86YV5); test: co-IP; HA-tagged FL SgK223 WT or mutants expressed in MCF-10A SgK223 KO cells; immunoprecipitation with anti-HA, blot with anti-SgK269 for the endogenous protein
T1 sequence: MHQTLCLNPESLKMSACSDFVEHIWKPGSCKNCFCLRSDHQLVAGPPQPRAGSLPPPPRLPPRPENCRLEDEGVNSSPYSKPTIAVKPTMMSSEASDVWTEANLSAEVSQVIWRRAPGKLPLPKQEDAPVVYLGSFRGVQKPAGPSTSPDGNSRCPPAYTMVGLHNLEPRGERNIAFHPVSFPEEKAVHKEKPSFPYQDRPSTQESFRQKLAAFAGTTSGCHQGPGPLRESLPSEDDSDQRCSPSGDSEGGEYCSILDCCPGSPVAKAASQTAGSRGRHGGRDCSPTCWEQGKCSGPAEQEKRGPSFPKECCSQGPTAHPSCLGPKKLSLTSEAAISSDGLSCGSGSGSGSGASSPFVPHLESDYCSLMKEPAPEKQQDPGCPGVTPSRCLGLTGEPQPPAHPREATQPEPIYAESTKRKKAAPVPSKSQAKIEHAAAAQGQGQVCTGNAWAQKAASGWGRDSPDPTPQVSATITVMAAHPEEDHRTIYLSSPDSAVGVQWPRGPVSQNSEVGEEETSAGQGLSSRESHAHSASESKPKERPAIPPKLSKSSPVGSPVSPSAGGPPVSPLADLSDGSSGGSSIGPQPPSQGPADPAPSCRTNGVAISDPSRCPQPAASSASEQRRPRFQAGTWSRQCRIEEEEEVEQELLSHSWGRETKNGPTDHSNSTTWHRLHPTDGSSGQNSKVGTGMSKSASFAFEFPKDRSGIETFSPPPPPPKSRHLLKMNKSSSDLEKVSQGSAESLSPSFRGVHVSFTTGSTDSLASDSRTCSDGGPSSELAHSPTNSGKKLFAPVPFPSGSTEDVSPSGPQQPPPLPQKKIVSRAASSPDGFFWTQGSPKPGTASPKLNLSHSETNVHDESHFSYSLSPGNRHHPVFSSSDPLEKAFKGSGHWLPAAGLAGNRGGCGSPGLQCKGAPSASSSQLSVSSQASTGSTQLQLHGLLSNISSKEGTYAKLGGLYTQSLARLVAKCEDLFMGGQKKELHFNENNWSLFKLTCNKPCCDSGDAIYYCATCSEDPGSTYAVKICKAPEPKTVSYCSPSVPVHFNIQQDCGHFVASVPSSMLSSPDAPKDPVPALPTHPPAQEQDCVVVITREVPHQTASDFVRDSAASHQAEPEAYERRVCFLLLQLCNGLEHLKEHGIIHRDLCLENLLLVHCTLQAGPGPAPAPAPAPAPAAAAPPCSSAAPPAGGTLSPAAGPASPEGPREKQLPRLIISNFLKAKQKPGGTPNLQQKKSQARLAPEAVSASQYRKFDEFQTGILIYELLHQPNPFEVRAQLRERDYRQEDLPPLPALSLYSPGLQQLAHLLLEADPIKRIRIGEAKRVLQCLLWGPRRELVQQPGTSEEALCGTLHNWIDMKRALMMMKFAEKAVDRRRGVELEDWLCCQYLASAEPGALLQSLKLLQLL

[2] = target: T2, HA-tagged SgK223-WT (MCF-10A SgK223 KO) (UniProt Q86YV5); test: as above
T2 sequence: T1 sequence with A1243I

binding [1]: binds | binding [2]: binds
Substance: endogenous FL SgK269-WT (from UniProt Q9H792 1-1746)
